PubChem BioAssay AID1347076 (National Center for Advancing Translational Sciences (NCATS), 2019)
The campaign covered roughly 400,000 compounds. About 13,000 (3.2%) were called active. Inconclusive results, whose numbers are uncertain, are shown with a selection of clear calls. The call rests on the fitted dose curve; in most records, active means well fitted cell-killing curve with a large enough effect; inconclusive means small, poorly fitted or top-dose-only effect, or effect the other way; inactive means flat fitted curve, though single readings scatter. A potency beside an inconclusive call is a rough fit, not a confirmed value.

assay: qHTS assay for MDR1-selective chemotherapeutics: Primary screen using the drug-selected MDR subline cells KB-V1; details: KB-V1 MDR cells viability, CellTiter-Glo, 72 h; activity change, negative = cytotoxicity: at 46.1 µM (top of the series); further: nearly all actives have a fitted effect of over 60% in size
In short: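 In this primary screen, KB-V1 cells overexpressing P-gp are incubated with library compounds (lowest to highest concentration) for 72 h at 37 degrees C before a luminescent ATP viability read.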
On the % scale 0 is the no-effect control and ±100 the full control effect; potency means the concentration at half of the fitted maximal effect.

| SMILES | Potency | activity change, negative = cytotoxicity |
| --- | --- | --- |
| COc1cc2c(cc1OC)C(C)N(C(=O)c1ccc(Br)o1)CC2 (stereo unspecified) | active: 13 µM | – |
| CCC(C)N1C(=O)S/C(=C/c2ccc3c(c2)n(C)c(=O)n3C)C1=O (stereo unspecified) | inconclusive: 16.4 µM [cytotoxic, partial curve] | – |
| Cc1ccc(CS(=O)Cc2ccc(C(=O)N3CCN(C4CCCCC4)CC3)o2)cc1 (stereo unspecified) | – | inactive: -14.2% |
| COC1CCN(Cc2cn(Cc3ccccc3)nc2-c2cc3ccccc3o2)CC1 | inconclusive: 0.92 µM [cytotoxic, full curve] | – |
| CCCc1cc(=O)[nH]c(SCC(=O)Nc2ccc(Br)cc2Br)n1 | inconclusive: 0.517 µM [cytotoxic, partial curve] | – |
| CCN(C[C@H]1N[C@@](Cc2ccccc2)(C(=O)OC)[C@H]2C(=O)N(Cc3ccccc3)C(=O)[C@@H]12)S(=O)(=O)c1ccc(OC(F)(F)F)cc1 | – | inconclusive: 0% |
| CC(=O)C1=C(C)OC(N)=C(C#N)C1c1cccc([N+](=O)[O-])c1 (stereo unspecified) | – | inactive: 11.9% |
| O=C(c1cccc(S(=O)(=O)N2CCc3ccccc32)c1)N1CCc2ccccc2C1 | – | inactive: 1.62% |
| O=C(c1cccc(N2C(=O)C3CC=CCC3C2=O)c1)N1CCCCCC1 (stereo unspecified) | inconclusive: 8.2 µM [cytotoxic, partial curve, poor fit] | – |
| CC(C)CCn1c(=O)c2ccccc2n2c(=S)[nH]nc12 | inconclusive: 11.6 µM [cytotoxic, partial curve, poor fit] | – |
| Cc1ccc(NC(=S)N(CCCN2CCOCC2)Cc2ccco2)cc1 | inconclusive: 16.4 µM [cytotoxic, single point] | – |
| C#CCN(C[C@H]1[C@H](OC(=O)NC2CC2)[C@H](OC(=O)NC2CC2)C[C@@H](C(=O)OC)[C@H]1C(=O)OC)S(=O)(=O)c1ccc(C)cc1 | inconclusive: 18.4 µM [rising, partial curve] | – |
| CC1Cc2ccccc2N1C(=O)Cn1cnc2c1c(=O)n(C)c(=O)n2C (stereo unspecified) | inconclusive: 29.1 µM [cytotoxic, single point] | – |
| COc1ccc(N2CCN(C(=O)CCNC(=O)c3ccc(Br)cc3)CC2)cc1 | inconclusive: 29.1 µM [cytotoxic, single point] | – |
| CCN(CC)C(=O)Cn1c(=O)n(CCCCCC(=O)Nc2ccccc2)c(=O)c2sccc21 | inconclusive: 18.4 µM [cytotoxic, single point] | – |
| CCOC(=O)N1CCN(Cc2nc3cc(NC(=O)CC(C)C)ccc3n2CC)CC1 | – | inactive: -0.475% |
| COc1ccc2cc(C(=O)C3CCCN(C(=O)c4ccnn4C)C3)ccc2c1 (stereo unspecified) | active: 16.4 µM | – |
| COc1ccccc1C(=O)NCC(c1cccs1)N1CCc2ccccc21 (stereo unspecified) | inconclusive: 3.26 µM [cytotoxic, partial curve] | – |
| CC(C)CNC(=O)c1cccc(NC(=O)Cc2ccc(Br)cc2)c1 | active: 3.26 µM | – |
| C=C(C)c1cccc(C(C)(C)NC(=O)Nc2ccc(C(C)=O)cc2)c1 | active: 18.4 µM | – |
| Fc1ccc(-c2nc3ccc(Br)cn3c2Cc2ccccc2)cc1 | – | inactive: -45.9% |
| COc1ccc2c(c1)OC[C@H]1[C@H]2N2C(=O)CN(CCc3c[nH]c4ccccc34)C(=O)[C@@]2(C)[C@H]1c1ccccc1 | – | inactive: 17.6% |
| COCCCn1c(SCc2nnc(-c3ccccc3)o2)nc2sc3c(c2c1=O)CCC3 | inconclusive: 9.2 µM [cytotoxic, partial curve, poor fit] | – |
| Cc1ccc(CN2CCN(CC(=O)N/N=C/c3ccccc3F)CC2)cc1 | – | inactive: -8.28% |

| SMILES | Potency | activity change, negative = cytotoxicity |
| --- | --- | --- |
| C#CCSc1nnc(-c2ccc(OC)cc2)o1 | inconclusive: 23.1 µM [cytotoxic, single point] | – |
| COC(=O)c1c[nH]c(=S)n1Cc1ccccc1 | – | inactive: 24.7% |
| Brc1ccccc1-c1nnc(-c2cccnc2)o1 | inconclusive: 29.1 µM [cytotoxic, single point] | – |
| CSCCC(NC(=O)c1ccc(Cl)cc1Cl)C(=O)NNC(=O)c1ccncc1 (stereo unspecified) | inconclusive: 29.1 µM [rising, single point] | – |
| CCOc1ccc(N(CC(=O)Nc2ccc(C)c(C)c2)S(C)(=O)=O)cc1 | inconclusive: 16.4 µM [cytotoxic, single point] | – |
| O=C1c2cccc3cccc(c23)C(=O)N1Cc1cccnc1 | – | inactive: -7.81% |
| Cc1ccc(CCNC(=O)CCNS(=O)(=O)c2ccc3c(c2)oc(=O)n3C)cc1 | – | inactive: 7.14% |
| O=c1c2ccccc2nc(-c2ccc([N+](=O)[O-])cc2)n1O | inconclusive: 29.1 µM [cytotoxic, partial curve, poor fit] | – |
| COc1ccc(-n2nc(C(=O)NCC(=O)N3CCCC(C)C3)c3ccccc3c2=O)cc1 (stereo unspecified) | – | inactive: -28.1% |
| Cc1sc(NC(=O)c2ccco2)c(C(=O)c2ccc(Cl)cc2)c1C | – | inactive: -27.8% |
| O=C(NCCS(=O)(=O)N1CCN(c2ccccc2F)CC1)c1ccc(Cl)cc1 | inconclusive: 20.6 µM [cytotoxic, partial curve, poor fit] | – |
| Cc1nn(Cc2ccccc2Cl)c2sc(C(=O)Nc3nccs3)cc12 | – | inactive: 3.27% |
| CC(=O)Nc1ccc(OCC(=O)NCCc2ccc(Cl)cc2)cc1 | inconclusive: 20.6 µM [cytotoxic, single point] | – |
| CCOC(=O)C1=C(NC(=S)NC(=O)c2ccccc2)c2ccccc2CC1(C)CC (stereo unspecified) | inconclusive: 16.4 µM [cytotoxic, partial curve] | – |
| CC(NC(=O)/C=C/c1ccco1)c1nc2ccccc2n1Cc1cccc(Cl)c1 (stereo unspecified) | – | inactive: 0% |
| CN(C)CCn1nnc2c(=O)oc3ccccc3c21 | – | inactive: 22% |
| COc1ccc(NC(=O)CC2C(=O)N(Cc3cccs3)C(=S)N2C(C)C)cc1 (stereo unspecified) | inconclusive: 5.17 µM [cytotoxic, partial curve, poor fit] | – |
| CCC1(C)Cc2ccccc2-c2nc(-c3ccccc3)oc(=O)c21 (stereo unspecified) | active: 16.4 µM | – |
| COc1ccccc1C1CC(c2c(-c3ccccc3)c3cc(Cl)ccc3[nH]c2=O)=NN1S(C)(=O)=O (stereo unspecified) | inconclusive: 20.6 µM [cytotoxic, single point] | – |
| C=C(c1nc2ccccc2s1)C1Cc2cccc3c2N(CCC3)C1 (stereo unspecified) | inconclusive: 25.9 µM [cytotoxic, single point] | – |
| O=C(NCC1CCN(c2ccc(S(=O)(=O)N3CCOCC3)cc2)CC1)Nc1ccccc1F | inconclusive: 16.4 µM [cytotoxic, single point] | – |
| O=C(NCc1ccc(F)cc1)C(c1cccnc1)N(C(=O)c1csnn1)c1ccccc1 (stereo unspecified) | – | inactive: -1.85% |
| O=C(c1cccc(F)c1)N1CCN(C(=O)c2nn3cccnc3c2Cl)CC1 | inconclusive: 2.59 µM [rising, partial curve, poor fit] | – |
| CCOc1ccccc1C1C(C(=O)OC)=C(N)OC2=C1C(=O)CCC2 (stereo unspecified) | – | inactive: -4.26% |

Copied from the list.
In Potency, CCN(CC)C(=O)Cn1c(=O)n(CCCCCC(=O)Nc2ccccc2)c(=O)c2sccc21 is entered as inconclusive: 18.4 µM [cytotoxic, single point]
In activity change, negative = cytotoxicity, O=C(c1cccc(S(=O)(=O)N2CCc3ccccc32)c1)N1CCc2ccccc2C1 is entered as inactive: 1.62%
In Potency, CC(=O)Nc1ccc(OCC(=O)NCCc2ccc(Cl)cc2)cc1 is entered as inconclusive: 20.6 µM [cytotoxic, single point]
In Potency, C=C(C)c1cccc(C(C)(C)NC(=O)Nc2ccc(C(C)=O)cc2)c1 is entered as active: 18.4 µM
In Potency, O=C(NCCS(=O)(=O)N1CCN(c2ccccc2F)CC1)c1ccc(Cl)cc1 is entered as inconclusive: 20.6 µM [cytotoxic, partial curve, poor fit]
In Potency, COc1cc2c(cc1OC)C(C)N(C(=O)c1ccc(Br)o1)CC2 (stereo unspecified) is entered as active: 13 µM

More records follow.

| SMILES | Potency | activity change, negative = cytotoxicity |
| --- | --- | --- |
| CCN(CC)S(=O)(=O)c1ccc(/C=C/C(=O)OCC(=O)N(C(C)C)C(C)C)cc1 | – | inactive: 4.98% |
| CCCCCC(=O)NC(=S)NC1C2CC3CC(C2)CC1C3 (stereo unspecified) | inconclusive: 16.4 µM [cytotoxic, single point] | – |
| COc1ccccc1C(=O)Nn1cnnc1 | inconclusive: 9.2 µM [rising, partial curve] | – |
| O=C(COc1ccccc1)NCC(=O)N/N=C/c1cc(Br)ccc1OCc1ccccc1 | inconclusive: 25.9 µM [cytotoxic, single point] | – |
| Cc1ccc(-n2nc(-c3cccs3)cc2C(=O)NCC2CCCO2)c(C)c1 (stereo unspecified) | inconclusive: 29.1 µM [cytotoxic, single point] | – |
| Cc1cc(/C=C(\C#N)C(=O)Nc2ccccc2)c(C)n1-c1ccc(F)cc1 | – | inactive: 3.78% |
| COC(=O)c1ccccc1NC(=O)c1sc2nc(C)cc(C)c2c1NC(=O)c1ccccc1Cl | – | inactive: -17.5% |
| C[C@@H]1CCCCO[C@@H](CN(C)Cc2ccc(Cl)c(Cl)c2)[C@@H](C)CN([C@H](C)CO)C(=O)c2cc(NC(=O)CCC(F)(F)F)ccc2O1 | inconclusive: 29.1 µM [cytotoxic, single point] | – |
| CN(Cc1ccccc1OCCO)CC1CCCN(CCc2ccc(Cl)cc2)C1 (stereo unspecified) | inconclusive: 4.11 µM [cytotoxic, full curve, poor fit] | – |
| N#Cc1nc(COc2ccc(-c3ccccc3)cc2)oc1NCc1cccnc1 | inconclusive: 18.4 µM [cytotoxic, single point] | – |
| Cc1cc(Cl)ccc1OC(C)C(=O)NN=C1CCCCCC1 (stereo unspecified) | inconclusive: 20.6 µM [rising, single point] | – |
| COc1cc(C2C(=O)N(C3CCCC3)CC(=O)N2Cc2ccco2)ccc1OC(C)C (stereo unspecified) | active: 3.66 µM | – |
| Cc1ccc(NC(=O)Nc2nc3ccc(S(C)(=O)=O)cc3s2)cc1 | – | inactive: 7.88% |
| CCCCCCC1CC(CSc2ncn[nH]2)OC1=O (stereo unspecified) | – | inactive: 8.4% |
| CCCc1cc2c(c(NC(C)=O)n1)c(=O)oc1ccccc12 | active: 13 µM | – |
| Cc1ccc(S(=O)(=O)N(C)C)cc1[N+](=O)[O-] | – | inactive: -9.52% |
| COc1ccc(NC(=O)c2cc(C(C)=O)n3ccccc23)cc1Cl | inconclusive: 16.4 µM [cytotoxic, single point] | – |
| C=CCn1c(SCC(=O)NCCO)nc2sc(C)c(C)c2c1=O | – | inactive: -0.655% |
| COc1ccc(S(=O)(=O)N2CCOCC2)cc1NC(=O)COC(=O)c1ccc([N+](=O)[O-])s1 | – | inactive: -4.12% |
| CC1(NC(=O)c2ccccc2)CCN(CCCc2ccccc2)C1=O (stereo unspecified) | inconclusive: 29.1 µM [cytotoxic, single point] | – |
| COc1ccc(CCC(=O)Nc2nnc(C(F)(F)F)s2)cc1 | inconclusive: 8.2 µM [rising, partial curve, poor fit] | – |
| COc1cc(-c2nc(-c3ccc4c(c3)-c3ccccc3S4(=O)=O)c(-c3ccccc3)[nH]2)cc(OC)c1OC | – | inactive: 0% |
| C=CC1CN(C(=O)OCC(Cl)(Cl)Cl)C2CC3c4ccc(OC)cc4NC3C3CC1C2CO3 (stereo unspecified) | inconclusive: 20.6 µM [cytotoxic, single point] | – |
